Measurements taken from PubChem BioAssay AID493014 (National Center for Advancing Translational Sciences (NCATS), 2011).
This is one part of the list. Further columns of the screen follow, without active or inactive calls. The list favours compounds with an active or inconclusive main result. Words in brackets tell the shape of the fitted curve; partial curves, single points and poor fits give uncertain potencies.

Test: qHTS Assay to Find Inhibitors of Chronic Active B-Cell Receptor Signaling
Conditions: ABC-DLBCL IkBa-CBG/CBR reporter, luminescence ratio (green luciferase fused to IkBa over red control in TMD8 lymphoma cells), 4 h
Summary of the method: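 Cell line TMD8 (human ABC DLBCL), stably expressing tet-inducible CBG68-IkBa fusion and CBR; IMDM/0.5% FBS; cpd up to 46 uM; dox induction, 4 h, 37C/5% CO2; dual luminescence; green/red ratio; MG132 control.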

[1] = measured here: CBR red luminescence, cell number
[2] = measured here: IkBa-CBG green luminescence

Row | SMILES | AC50 [1] | AC50 [2]
1 | Cc1ccccc1C(=O)NC(=S)Nc1ccc2[nH]c(=O)[nH]c2c1 | 0.794 µM [falling, full curve, poor fit] | 
2 | CCc1ccc2nc3n[nH]c(N)c3cc2c1 |  | 15.8 µM [falling, single point]
3 | CCCn1c(N)c(C(=O)CSc2ncnc3sccc23)c(=O)n(C)c1=O | 0.411 µM [falling, full curve, poor fit] | 
4 | O=C(CS(=O)c1ccc(C(F)(F)F)cc1[N+](=O)[O-])Oc1ccccc1 (stereo not drawn) | 8.2 µM [falling, partial curve, poor fit] | 23.1 µM [rising, partial curve, poor fit]
5 | CSc1cccc(NC(=O)OC2CCCCCCCCCCC2)c1 | 35.5 µM [falling, single point] | 
6 | Cc1ccc(C(=O)OCC(=O)c2c[nH]c3ccccc23)cc1NC(=O)c1ccco1 | 11.2 µM [falling, single point] | 
7 | COc1ccc(OCCN(C)Cc2c(O)ccc3ccccc23)cc1 | 35.5 µM [falling, single point] | 
8 | CC1(CC(=O)NNC(=O)Nc2ccccc2)OCCCO1 | 0.501 µM [rising, full curve] | 
9 | COc1cccc(NC(=O)c2ccc(N3C(=O)C4CC=C(C)CC4C3=O)cc2)c1 (stereo not drawn) | 22.4 µM [falling, single point] | 
10 | C[C@H](c1ccccc1)n1nnc(COCc2ccccc2)c1C#CCOCc1ccccc1 | 5.62 µM [rising, single point] | 
11 | CC(C)NC(=S)NCc1cccs1 | 5.62 µM [rising, partial curve, poor fit] | 
12 | CCn1cnc2cc(NCc3cccc(OC)c3O)ccc21 | 20.6 µM [rising, single point] | 
13 | COc1ccc(-c2cc(C(F)(F)F)nc(SCC(=O)Nc3ccc4c(c3)OCO4)n2)cc1OC | 5.8 µM [rising, full curve, poor fit] | 
14 | O=C(N/C(=C\c1cccs1)C(=O)N1CCOCC1)c1ccco1 | 25.1 µM [falling, single point] | 
15 | O=C(O)CC/C(=C\c1cccc(NC(=O)c2ccccc2Cl)c1)c1nc2ccccc2s1 | 10 µM [falling, partial curve] | 
16 | C/C(=N/NC(=O)c1sc(NS(=O)(=O)c2ccccc2)nc1C)c1ccccc1 | 3.26 µM [falling, partial curve, poor fit] | 
17 | O=C(CCN1C(=O)/C(=C/C=C/c2ccccc2)SC1=S)Nc1nccs1 | 10 µM [falling, partial curve] | 
18 | CCC1CCCCN1C(=O)Nc1cc(Cl)ccc1OC (stereo not drawn) | 12.6 µM [rising, single point] | 
19 | CCn1c(SCC(=O)N2c3ccccc3Sc3ccccc32)nnc1-c1ccco1 | 20.6 µM [falling, partial curve, poor fit] | 
20 | CN(C)c1nc(-c2ccccc2)ns1 | 31.6 µM [rising, single point] | 
21 | COc1cc(C(=O)Nc2cccc(C(C)=O)c2)cc(OC)c1OC | 20 µM [rising, single point] | 

Entries of single compounds, looked up by structure:
`COc1ccc(-c2cc(C(F)(F)F)nc(SCC(=O)Nc3ccc4c(c3)OCO4)n2)cc1OC` is listed with AC50 [1]: 5.8 µM [rising, full curve, poor fit]
`O=C(CCN1C(=O)/C(=C/C=C/c2ccccc2)SC1=S)Nc1nccs1` is listed with AC50 [1]: 10 µM [falling, partial curve]
`CSc1cccc(NC(=O)OC2CCCCCCCCCCC2)c1` is listed with AC50 [1]: 35.5 µM [falling, single point]

More results:

Row | SMILES | AC50 [1] | AC50 [2]
22 | Oc1ccc(/C=N/N2CCN(C3c4ccccc4-c4ccccc43)CC2)cc1O | 7.94 µM [falling, partial curve] | 
23 | Cc1ccnc(NC(=O)c2ccc(Cl)c(S(=O)(=O)N3CCCC3)c2)c1 | 23.1 µM [falling, single point] | 
24 | COc1ccc(S(=O)(=O)Nc2cccc(C)n2)c2ccccc12 | 8.2 µM [rising, partial curve] | 
25 | COc1ccc(-c2noc(CCCC(=O)O)n2)cc1 | 29.1 µM [falling, single point] | 0.184 µM [rising, full curve, poor fit]
26 | COC(=O)c1ccccc1NC(=S)NC(=O)c1ccc2c(c1)OCO2 | 1.78 µM [falling, full curve] | 
27 | Cc1c(C(=O)NCC2CCCO2)oc2ccc(S(=O)(=O)N3CCCC3)cc12 (stereo not drawn) | 9.2 µM [rising, partial curve] | 
28 | C/C(CC(=O)Nc1cc(C)ccn1)=N\NC(=O)c1cccc(C)c1O | 22.4 µM [falling, single point] | 
29 | O=C(CCNC(=O)c1ccc(Br)cc1)NCC1COc2ccccc2O1 (stereo not drawn) | 5.01 µM [rising, single point] | 
30 | Cc1csc(NC(=O)CSc2nc(C(C)C)nc3ccccc23)n1 | 0.282 µM [falling, full curve, poor fit] | 
31 | Cc1cc2c(Nc3cccc(O)c3)ncnc2s1 | 35.5 µM [falling, single point] | 
32 | CCOCc1c(C(=O)N2CCN(CC(=O)Nc3ccc(F)cc3)CC2)oc2ccccc12 | 4.61 µM [falling, full curve, poor fit] | 
33 | COCc1cc(=O)n2[nH]c(-c3cccc(Br)c3)cc2n1 | 8.2 µM [falling, partial curve, poor fit] | 
34 | Nc1nc(SCc2nc3scc(-c4ccccc4)c3c(=O)[nH]2)n[nH]1 | 16.4 µM [rising, single point] | 
35 | Cc1ccc(C(=O)N/C(=C\c2ccc(-c3ccccc3[N+](=O)[O-])o2)C(=O)NCCN(C)C)cc1 | 7.08 µM [falling, partial curve, poor fit] | 
36 | Cn1nc(-c2ccccc2)c(CSc2ccccc2)c1Cl | 16.4 µM [rising, partial curve] | 
37 | CCCCCCN(C(=O)CCCCCN1C(=O)NC(c2ccccc2)C(C(=O)OCc2ccccc2)=C1C)C(C(=O)NCCCC)c1ccc(OCC(=O)OC)c(C(=O)OC)c1 (stereo not drawn) | 35.5 µM [falling, single point] | 
38 | CCOC(=O)N1CCC(NC(=O)CSCc2cnn(-c3ccccc3)c2-n2cccc2)CC1 | 12.6 µM [falling, partial curve, poor fit] | 
39 | C#CCOc1ccc(/C=C2/C(=O)ON=C2C)cc1OCC | 3.55 µM [falling, single point] | 
40 | Cc1ccc(S(=O)(=O)CC(CN2CCCCC2)N2CCCCC2)cc1 (stereo not drawn) |  | 11.2 µM [rising, partial curve, poor fit]
41 | O=C(/C=C/c1cn(-c2ccccc2)nc1-c1cccnc1)c1ccco1 | 8.91 µM [falling, partial curve] | 
